Laboratory results taken from US10913771B2, “Peptide for preventing or treating inflammatory diseases and use thereof” (KINE SCIENCES Co., Ltd., priority 2016, dated 2021).
At least one peptide structure holds a part that was inferred or is arguable (an end, a ring closure or a residue). Ends that are not written are not given here.

What was measured:
[1] = test system: collagen-induced arthritis (CIA) mouse model; test: Arthritis progression index in collagen-induced arthritis mouse model; assay type: in vivo, DBA/1J mouse
Experimental: In Example 2, using a collagen-induced arthritis mouse model in the following document, a therapeutic effect of a PSP dimer or trimer for a representative inflammatory disease, rheumatoid arthritis was confirmed (Nat Protoc. 2007; 2(5):1269-75.).
A collagen-induced arthritis (CIA) mouse model was prepared as follows, as an autoimmune disease-based arthritis model with characteristics similar to human rheumatoid arthritis.
First, a bovine type II collagen (Chondrex Corporation, USA) and a Freund's complete adjuvant (Chondrex Corporation, USA) were mixed at a ratio of 1:1 and emulsified, and then 50 μl of the emulsified collagen solution was injected intradermally into the tail of a 6-week-old DBA/1J mouse to induce primary immunization. At two weeks after the primary immunization, the bovine type II collagen and the Freund's complete adjuvant were mixed at a ratio of 1:1 and emulsified, and then 50 μl of the emulsified collagen solution was injected intradermally into the tail of the mouse again to induce secondary immunization (boosting). After the secondary immunization, the peptide of the present invention (the PSP dimer (1 μmole) or the PSP trimer (1 μmole)) was administered intraperitoneally three times a week from the next day, and as a comparative experimental group, a PSP monomer-treated group and as a control (Vehicle control), a PBS-treated group were used, respectively. The preparation process of the collagen-induced arthritis mouse model and the administration time of the peptide were schematically illustrated in FIG. 1.
In order to investigate the development of arthritis progression according to the peptide treatment of the present invention, the deepening degree of arthritis with time was measured by evaluating an arthritis progression index. Two observers who were unaware of the specific experimental conditions evaluated progression of arthritis three times a week. In this case, the arthritis progression index was evaluated by 0 to 4 scores per leg according to an arthritis progression evaluation standard by Rossoliniec and the like in Table 2 below to be represented by a total of 0 to 16 scores (a sum of four legs), and thereafter, two observers calculated an average value of the evaluated results to digitize the severity of arthritis.
Methotrexate (MTX), one of drugs which are used as arthritis therapeutic agents in a current clinical practice, had excellent anti-inflammatory and arthritis therapeutic effects as an immunodepressant, but may have side effects such as toxicity to normal cells, oral ulcer, alopecia, interstitial pneumonia, bone marrow suppression, and the like. As a result, the methotrexate is known as a drug that needs to pay close attention after medication with sufficient medication counseling. In Example 2, the arthritis therapeutic effect with the peptide of the present invention and methotrexate (1 mg/kg) was evaluated and compared with the arthritic progression index by using the same method as Example 2-2.

[2] = test system: interleukin-18 (IL-18); test: IL-18 expression in joint tissue by immunohistochemistry (IHC); assay type: in vivo; conditions: CIA mouse joint tissue; FIG. 7
[3] = test system: collagen-induced arthritis (CIA) mouse model; test: Histological analysis (H&E) of hind leg joint tissue of CIA mouse; assay type: in vivo; conditions: FIG. 6

Sequence: PSPPSPPSP [PSP trimer, PSPPSPPSP]
- swelling and redness symptoms around the ankle joint (visual check) ([1]; CIA mouse, compared with the control, FIG. 5): remarkably mitigated
- arthritis progression index compared with methotrexate ([1]; CIA mouse, methotrexate 1 mg/kg, in words): approximate arthritis progression index to the group treated with methotrexate
- arthritis progression index ([1]; Table 5, day 21, 1 μmole intraperitoneally three times a week, 0 to 16 scores): 0.0
- arthritis progression index ([1]; Table 5, day 23, 1 μmole intraperitoneally three times a week): 0.0
- arthritis progression index ([1]; Table 5, day 25, 1 μmole intraperitoneally three times a week): 0.6
- arthritis progression index ([1]; Table 5, day 27, 1 μmole intraperitoneally three times a week): 0.8
- arthritis progression index ([1]; Table 5, day 29, 1 μmole intraperitoneally three times a week): 1.4
- arthritis progression index ([1]; Table 5, day 32, 1 μmole intraperitoneally three times a week): 1.4
- arthritis progression index ([1]; Table 5, day 34, 1 μmole intraperitoneally three times a week): 2.6
- arthritis progression index ([1]; Table 5, day 36, 1 μmole intraperitoneally three times a week): 3.6
- arthritis progression index ([1]; Table 5, day 39, 1 μmole intraperitoneally three times a week): 5.6
- arthritis progression index ([1]; Table 7, day 14, comparison of PSP trimer with methotrexate (1 mg/kg), 0 to 16 scores): 0.0
- arthritis progression index ([1]; Table 7, day 17, comparison with methotrexate (1 mg/kg)): 0.0
- arthritis progression index ([1]; Table 7, day 20, comparison with methotrexate (1 mg/kg)): 0.0
- arthritis progression index ([1]; Table 7, day 22, comparison with methotrexate (1 mg/kg)): 0.0
- arthritis progression index ([1]; Table 7, day 25, comparison with methotrexate (1 mg/kg)): 0.0
- arthritis progression index ([1]; Table 7, day 27, comparison with methotrexate (1 mg/kg)): 0.8
- arthritis progression index ([1]; Table 7, day 29, comparison with methotrexate (1 mg/kg)): 1.6
- arthritis progression index ([1]; Table 7, day 31, comparison with methotrexate (1 mg/kg)): 3.0
- arthritis progression index ([1]; Table 7, day 35, comparison with methotrexate (1 mg/kg)): 4.4
- expression of IL-18 in the joint region (IHC) [2]: largely decreased to the normal mouse level
- immune cell infiltration, pannus formation, cartilage destruction and bone erosion of the joint region (H&E) [3]: greatly reduced
